Reference: article PMC5996148
Some of the results follow.

Experiments:
Experiment in all cases: protein microarray (ProtoArray v5.0), streptavidin-Alexa Fluor 647
Details in all cases: 3'-biotin; 20 mM Tris (pH 7.5), 5 mM MgCl2, 100 mM KCl, 0.1% Tween-20, A/T-rich and random oligonucleotide blockers; temperature not stated; high values mean tight binding
SF3B3 (human) = test system: SF3B3 (human)
SFT2D1 (human) = test system: SFT2D1 (human)
SFXN1 (human) = test system: SFXN1 (human)
SFXN3 (human) = test system: SFXN3 (human)
SGK2 (human) = test system: SGK2 (human)
SGTA (human) = test system: SGTA (human)
SH2B1 (human) = test system: SH2B1 (human)
SIRPG (human) = test system: SIRPG (human)
SIVA1 (human) = test system: SIVA1 (human)
SKIL (human) = test system: SKIL (human)

## GGTGACAGGGGTATGGGGAGGGG [G4-2 biotinylated (Ct1)]
SF3B3 (human)
  binding signal: -0.357 z-score
SFT2D1 (human)
  binding signal: -0.373 z-score
SFXN1 (human)
  binding signal: -0.373 z-score
SFXN3 (human)
  binding signal: -0.395 z-score
SGK2 (human)
  binding signal: -0.37 z-score
SGTA (human)
  binding signal: -0.389 z-score
SH2B1 (human)
  binding signal: -0.384 z-score
SIRPG (human)
  binding signal: -0.359 z-score
SIVA1 (human)
  binding signal: -0.372 z-score
SKIL (human)
  binding signal: -0.357 z-score
